Measurements published in PMC12494878.
No constants are given. Whether binding was seen depends on the method and setting. Some binding calls cover weakened binding; strength is not graded here. Where a sequence is shown, tags or fusion partners need not be part of it.

Biological target: 1M3U self-assembling mutant (D157L/E158L/D161L) fused to YFP (UniProt P31057)
Test: cryo-electron tomography of cells (with TEM and CLEM of cell sections); yeast cells expressing the YFP-tagged mutant; cryo-FIB milled lamellae, tilt series at 300 kV; fixed sections for TEM and CLEM

binding: binds
B1: 1M3U self-assembling mutant (D157L/E158L/D161L) fused to YFP (protein, UniProt P31057 1-264)
chain: MKPTTISLLQKYKQEKKRFATITAYDYSFAKLFADEGLNVMLVGDSLGMTVQGHDSTLPVTVADIAYHTAAVRRGAPNCLLLADLPFMAYATPEQAFENAATVMRAGANMVKIEGGEWLVETVQMLTERAVPVCGHLGLTPQSVNIFGGYKVQGRGLLAGLQLLSDALALEAAGAQLLVLECVPVELAKRITEALAIPVIGIGAGNVTDGQILVMHDAFGITGGHIPKFAKNFLAETGDIRAAVRQYMAEVESGVYPGEEHSFH
